Measured values taken from article PMC12283572.
These are yes or no findings as the source states them, for the method shown. For some assays here: Binding seen in cells or lysates may run through a third protein. Some results given as binding are weak or reduced against the parent protein; the word gives no strength. Tags and fused reporters may be left off the sequences shown.

Legend:
[1] = target: T1, Irgb6 (Yeast Two-Hybrid fusion) (mouse) (UniProt Q62293); assay: two-hybrid; S. cerevisiae PJ69-4α; Gal4 AD and BD fusions; colony growth on SD/-Leu/-Trp/-His with 0.5 mM 3-AT, 30°C, 5 to 14 days
T1 sequence: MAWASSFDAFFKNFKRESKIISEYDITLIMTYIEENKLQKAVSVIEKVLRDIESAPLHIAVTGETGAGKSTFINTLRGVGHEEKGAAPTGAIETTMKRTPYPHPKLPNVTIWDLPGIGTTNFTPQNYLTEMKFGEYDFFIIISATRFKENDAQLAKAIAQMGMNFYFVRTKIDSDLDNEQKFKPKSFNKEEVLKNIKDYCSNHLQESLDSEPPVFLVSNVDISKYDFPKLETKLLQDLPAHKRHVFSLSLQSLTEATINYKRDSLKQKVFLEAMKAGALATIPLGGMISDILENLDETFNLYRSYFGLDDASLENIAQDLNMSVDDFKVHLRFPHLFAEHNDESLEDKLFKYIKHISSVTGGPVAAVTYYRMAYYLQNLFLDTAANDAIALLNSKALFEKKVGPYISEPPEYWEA

[2] = target: T2, Irgb6 (β-lactamase fragment fusion for PCA) (mouse) (UniProt Q62293); assay: split reporter; Protein-fragment complementation assay (PCA): proteins fused to BlaN or BlaC fragments of TEM-1 β-lactamase, co-transfected in HEK293T cells, lysed 24 h later; nitrocefin hydrolysis in the supernatant read as absorbance at 495 nm
T2 sequence: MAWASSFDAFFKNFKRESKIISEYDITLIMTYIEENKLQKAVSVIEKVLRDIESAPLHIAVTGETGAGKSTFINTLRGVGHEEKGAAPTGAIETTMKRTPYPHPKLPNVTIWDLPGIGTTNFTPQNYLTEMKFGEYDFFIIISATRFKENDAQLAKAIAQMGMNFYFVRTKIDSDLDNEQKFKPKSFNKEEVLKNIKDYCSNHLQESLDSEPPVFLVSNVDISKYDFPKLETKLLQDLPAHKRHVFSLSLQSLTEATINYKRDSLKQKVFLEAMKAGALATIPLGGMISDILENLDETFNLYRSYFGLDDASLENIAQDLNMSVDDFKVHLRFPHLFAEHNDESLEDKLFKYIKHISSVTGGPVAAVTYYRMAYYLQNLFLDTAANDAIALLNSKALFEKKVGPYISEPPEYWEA

Row | Binder | binding [1] | binding [2]
1 | GBP5 (Yeast Two-Hybrid fusion) (protein, UniProt Q8CFB4 1-590) MAPEIHMPEPLCLIGSTEGHLVTNQEALKILSAITQPVVVVAIVGLYRTGKSYLMNKLAGKEKGFSVGSTVQSHTKGIWMWCVPHPQKPDHTLVLLDTEGLGDVEKDDKKNDTQIFALAILLSSTFVYNTMNKIDQGAIDLLHNVTELTDLLRTRNSSDSNQTEGEGPADMSFFPDLVWTLRDFFLDLQANGHAITSDEYLENSLKLKQGSDERTQTFNLPRLCIQKFFPVKKCFVFDAPALGSKLSQLPTLSNEELNSDFVQDLSEFCSHIFTQSKTKTLPGGIQVNGPRLESLVLTYVDAINSGALPSIENTVVTLARRENSAAVQKAIGHYDQLMSEKVQLPTETLQELLDLHRTCEREAIEIFRKHSFKDEGEFFQKELESLLSAKQDEICKKNADASAALCSTLLGSIFKPLEQEVAQEFYHKPGGHKLFLQRMEQLKANYRQQPGKGTQAEEVLQTYLNAKETVSRTILQTDQVLTDKEIQSKAEQERAEAARLEAQRLEAIRIQEEQRKAEMERQHQEQLRQIALEKARVAQEQQWILKQRAQEEADRIKAEQEAQLRALQQQLQHMREMNHHRRHHHDCVIS | binds | 
2 | GBP5 (β-lactamase fragment fusion for PCA) (protein, UniProt Q8CFB4 1-590) MAPEIHMPEPLCLIGSTEGHLVTNQEALKILSAITQPVVVVAIVGLYRTGKSYLMNKLAGKEKGFSVGSTVQSHTKGIWMWCVPHPQKPDHTLVLLDTEGLGDVEKDDKKNDTQIFALAILLSSTFVYNTMNKIDQGAIDLLHNVTELTDLLRTRNSSDSNQTEGEGPADMSFFPDLVWTLRDFFLDLQANGHAITSDEYLENSLKLKQGSDERTQTFNLPRLCIQKFFPVKKCFVFDAPALGSKLSQLPTLSNEELNSDFVQDLSEFCSHIFTQSKTKTLPGGIQVNGPRLESLVLTYVDAINSGALPSIENTVVTLARRENSAAVQKAIGHYDQLMSEKVQLPTETLQELLDLHRTCEREAIEIFRKHSFKDEGEFFQKELESLLSAKQDEICKKNADASAALCSTLLGSIFKPLEQEVAQEFYHKPGGHKLFLQRMEQLKANYRQQPGKGTQAEEVLQTYLNAKETVSRTILQTDQVLTDKEIQSKAEQERAEAARLEAQRLEAIRIQEEQRKAEMERQHQEQLRQIALEKARVAQEQQWILKQRAQEEADRIKAEQEAQLRALQQQLQHMREMNHHRRHHHDCVIS |  | binds
